Laboratory results reported in the supplement of paper PMC10849652.
The other results are listed elsewhere or left out.

Chains of the proteins cited; added tags and fusions are not shown. Lines headed by an entry give the natural chain unless they say otherwise; changes in a name come on top.
UniProt P35269, whole entry, looked up: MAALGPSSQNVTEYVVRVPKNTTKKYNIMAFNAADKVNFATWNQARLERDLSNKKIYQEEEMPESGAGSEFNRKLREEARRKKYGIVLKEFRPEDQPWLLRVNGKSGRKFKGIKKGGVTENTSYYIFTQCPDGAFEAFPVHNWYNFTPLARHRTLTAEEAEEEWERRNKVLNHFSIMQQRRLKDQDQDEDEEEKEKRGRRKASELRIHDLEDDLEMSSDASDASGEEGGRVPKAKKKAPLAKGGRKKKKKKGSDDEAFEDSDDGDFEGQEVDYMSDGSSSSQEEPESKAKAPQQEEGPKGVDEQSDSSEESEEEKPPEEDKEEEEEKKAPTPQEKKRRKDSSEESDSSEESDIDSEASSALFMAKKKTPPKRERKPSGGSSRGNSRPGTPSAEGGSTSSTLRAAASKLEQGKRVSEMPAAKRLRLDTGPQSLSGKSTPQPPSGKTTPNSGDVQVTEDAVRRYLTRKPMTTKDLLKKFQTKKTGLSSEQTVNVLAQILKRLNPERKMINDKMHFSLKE
UniProt Q9NRV9: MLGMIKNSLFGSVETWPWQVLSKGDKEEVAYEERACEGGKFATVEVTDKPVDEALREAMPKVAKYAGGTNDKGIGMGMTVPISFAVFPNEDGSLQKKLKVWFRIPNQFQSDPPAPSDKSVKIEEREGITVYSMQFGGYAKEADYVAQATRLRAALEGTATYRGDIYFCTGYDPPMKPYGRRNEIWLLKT
UniProt P15170, whole entry, looked up: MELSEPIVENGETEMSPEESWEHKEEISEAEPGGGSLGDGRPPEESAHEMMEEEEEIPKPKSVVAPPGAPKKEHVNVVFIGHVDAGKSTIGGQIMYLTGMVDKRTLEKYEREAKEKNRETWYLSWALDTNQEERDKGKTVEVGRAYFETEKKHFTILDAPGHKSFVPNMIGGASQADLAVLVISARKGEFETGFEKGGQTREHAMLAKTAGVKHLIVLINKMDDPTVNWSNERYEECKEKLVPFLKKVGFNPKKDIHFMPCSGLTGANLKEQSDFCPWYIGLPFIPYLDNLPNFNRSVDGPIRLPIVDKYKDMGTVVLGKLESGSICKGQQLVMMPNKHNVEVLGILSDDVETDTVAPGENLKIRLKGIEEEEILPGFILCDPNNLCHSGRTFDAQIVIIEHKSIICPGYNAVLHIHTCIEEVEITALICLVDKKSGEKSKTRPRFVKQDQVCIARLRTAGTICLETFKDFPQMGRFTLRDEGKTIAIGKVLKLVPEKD
UniProt P13984, whole entry, looked up: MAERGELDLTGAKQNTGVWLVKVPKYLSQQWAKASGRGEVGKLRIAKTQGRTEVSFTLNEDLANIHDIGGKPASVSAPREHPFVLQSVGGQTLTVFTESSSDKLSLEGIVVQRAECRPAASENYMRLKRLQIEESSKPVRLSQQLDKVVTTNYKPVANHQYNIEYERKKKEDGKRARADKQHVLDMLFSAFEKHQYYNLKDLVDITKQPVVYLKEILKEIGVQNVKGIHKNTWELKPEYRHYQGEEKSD
UniProt P16402, whole entry, looked up: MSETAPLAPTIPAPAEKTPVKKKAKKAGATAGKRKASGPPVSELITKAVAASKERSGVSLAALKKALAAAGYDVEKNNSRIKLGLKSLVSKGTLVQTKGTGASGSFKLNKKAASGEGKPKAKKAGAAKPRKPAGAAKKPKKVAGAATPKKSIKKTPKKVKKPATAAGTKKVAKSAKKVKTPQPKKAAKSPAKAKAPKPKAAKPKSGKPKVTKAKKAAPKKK
UniProt Q8NG08: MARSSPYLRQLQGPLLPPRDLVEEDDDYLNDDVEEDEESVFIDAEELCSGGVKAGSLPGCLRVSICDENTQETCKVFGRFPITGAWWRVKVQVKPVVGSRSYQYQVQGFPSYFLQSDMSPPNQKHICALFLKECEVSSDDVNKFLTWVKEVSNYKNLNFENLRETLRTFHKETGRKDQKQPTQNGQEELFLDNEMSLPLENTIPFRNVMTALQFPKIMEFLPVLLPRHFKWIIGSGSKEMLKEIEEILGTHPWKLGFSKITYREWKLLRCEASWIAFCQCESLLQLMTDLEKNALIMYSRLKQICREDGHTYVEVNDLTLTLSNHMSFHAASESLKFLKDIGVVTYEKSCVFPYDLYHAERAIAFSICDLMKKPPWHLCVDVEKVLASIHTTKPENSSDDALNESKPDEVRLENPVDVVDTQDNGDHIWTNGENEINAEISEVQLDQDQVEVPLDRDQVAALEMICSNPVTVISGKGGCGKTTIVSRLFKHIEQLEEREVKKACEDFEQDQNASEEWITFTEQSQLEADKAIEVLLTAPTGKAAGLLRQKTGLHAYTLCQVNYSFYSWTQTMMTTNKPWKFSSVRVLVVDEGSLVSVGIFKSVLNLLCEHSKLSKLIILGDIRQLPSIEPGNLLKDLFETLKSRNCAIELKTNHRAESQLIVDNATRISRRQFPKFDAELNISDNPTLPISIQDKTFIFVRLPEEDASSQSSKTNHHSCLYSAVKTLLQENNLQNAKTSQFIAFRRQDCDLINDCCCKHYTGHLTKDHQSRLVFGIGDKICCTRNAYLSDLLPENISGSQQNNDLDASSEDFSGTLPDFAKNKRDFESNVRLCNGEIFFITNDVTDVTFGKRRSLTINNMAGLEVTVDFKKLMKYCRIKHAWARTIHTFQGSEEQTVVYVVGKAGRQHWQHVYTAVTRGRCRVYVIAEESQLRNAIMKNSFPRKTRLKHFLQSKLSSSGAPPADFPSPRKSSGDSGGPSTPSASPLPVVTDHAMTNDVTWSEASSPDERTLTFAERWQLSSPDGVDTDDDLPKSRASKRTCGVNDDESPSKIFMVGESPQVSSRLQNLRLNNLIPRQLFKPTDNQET
UniProt A4D1E9: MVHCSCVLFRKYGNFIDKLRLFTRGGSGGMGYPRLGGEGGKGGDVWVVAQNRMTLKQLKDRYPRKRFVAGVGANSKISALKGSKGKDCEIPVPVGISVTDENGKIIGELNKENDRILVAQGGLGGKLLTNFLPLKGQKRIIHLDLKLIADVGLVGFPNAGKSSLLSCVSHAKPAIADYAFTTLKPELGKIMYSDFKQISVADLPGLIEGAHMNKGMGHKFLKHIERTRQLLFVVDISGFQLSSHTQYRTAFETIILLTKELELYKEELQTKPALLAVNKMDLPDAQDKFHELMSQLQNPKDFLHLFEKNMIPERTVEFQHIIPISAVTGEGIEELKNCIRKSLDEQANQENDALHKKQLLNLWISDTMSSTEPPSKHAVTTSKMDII
UniProt P78347: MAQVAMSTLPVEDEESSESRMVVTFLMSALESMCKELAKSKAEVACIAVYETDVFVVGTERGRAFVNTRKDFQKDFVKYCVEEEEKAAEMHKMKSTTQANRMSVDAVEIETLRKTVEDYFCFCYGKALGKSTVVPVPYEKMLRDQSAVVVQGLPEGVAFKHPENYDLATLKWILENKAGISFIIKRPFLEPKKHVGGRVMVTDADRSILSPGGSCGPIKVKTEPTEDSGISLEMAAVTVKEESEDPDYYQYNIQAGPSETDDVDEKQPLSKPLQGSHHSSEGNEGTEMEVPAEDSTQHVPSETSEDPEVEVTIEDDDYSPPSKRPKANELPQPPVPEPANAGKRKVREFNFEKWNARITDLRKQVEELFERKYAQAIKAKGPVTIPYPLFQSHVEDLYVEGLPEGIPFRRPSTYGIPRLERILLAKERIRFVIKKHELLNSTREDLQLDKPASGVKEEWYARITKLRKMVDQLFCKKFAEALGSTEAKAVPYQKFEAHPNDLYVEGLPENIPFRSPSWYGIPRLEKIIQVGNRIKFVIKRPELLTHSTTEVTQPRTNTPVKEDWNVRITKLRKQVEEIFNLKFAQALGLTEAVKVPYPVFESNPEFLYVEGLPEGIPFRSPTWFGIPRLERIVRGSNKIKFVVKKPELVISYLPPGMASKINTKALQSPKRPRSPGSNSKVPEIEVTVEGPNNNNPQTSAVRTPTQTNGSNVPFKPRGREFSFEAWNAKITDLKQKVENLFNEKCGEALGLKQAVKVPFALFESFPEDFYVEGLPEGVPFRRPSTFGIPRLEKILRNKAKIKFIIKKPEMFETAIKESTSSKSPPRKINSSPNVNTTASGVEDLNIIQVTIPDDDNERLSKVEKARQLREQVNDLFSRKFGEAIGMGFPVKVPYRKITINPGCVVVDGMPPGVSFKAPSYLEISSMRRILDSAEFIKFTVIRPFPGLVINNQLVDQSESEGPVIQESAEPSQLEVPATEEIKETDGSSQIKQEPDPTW
UniProt Q9BXW7: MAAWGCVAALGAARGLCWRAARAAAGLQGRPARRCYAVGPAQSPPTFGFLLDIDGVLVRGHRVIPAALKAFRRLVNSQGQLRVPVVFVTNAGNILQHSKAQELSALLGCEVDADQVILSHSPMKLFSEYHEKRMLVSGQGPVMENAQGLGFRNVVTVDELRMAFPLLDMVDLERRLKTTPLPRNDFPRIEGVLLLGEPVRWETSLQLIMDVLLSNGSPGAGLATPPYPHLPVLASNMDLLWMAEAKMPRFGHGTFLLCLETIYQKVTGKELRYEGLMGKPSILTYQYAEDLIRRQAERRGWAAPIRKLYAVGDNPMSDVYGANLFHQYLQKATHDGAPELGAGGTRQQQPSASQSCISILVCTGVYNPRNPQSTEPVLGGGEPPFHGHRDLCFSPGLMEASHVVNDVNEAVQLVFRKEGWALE
UniProt Q5GLZ8: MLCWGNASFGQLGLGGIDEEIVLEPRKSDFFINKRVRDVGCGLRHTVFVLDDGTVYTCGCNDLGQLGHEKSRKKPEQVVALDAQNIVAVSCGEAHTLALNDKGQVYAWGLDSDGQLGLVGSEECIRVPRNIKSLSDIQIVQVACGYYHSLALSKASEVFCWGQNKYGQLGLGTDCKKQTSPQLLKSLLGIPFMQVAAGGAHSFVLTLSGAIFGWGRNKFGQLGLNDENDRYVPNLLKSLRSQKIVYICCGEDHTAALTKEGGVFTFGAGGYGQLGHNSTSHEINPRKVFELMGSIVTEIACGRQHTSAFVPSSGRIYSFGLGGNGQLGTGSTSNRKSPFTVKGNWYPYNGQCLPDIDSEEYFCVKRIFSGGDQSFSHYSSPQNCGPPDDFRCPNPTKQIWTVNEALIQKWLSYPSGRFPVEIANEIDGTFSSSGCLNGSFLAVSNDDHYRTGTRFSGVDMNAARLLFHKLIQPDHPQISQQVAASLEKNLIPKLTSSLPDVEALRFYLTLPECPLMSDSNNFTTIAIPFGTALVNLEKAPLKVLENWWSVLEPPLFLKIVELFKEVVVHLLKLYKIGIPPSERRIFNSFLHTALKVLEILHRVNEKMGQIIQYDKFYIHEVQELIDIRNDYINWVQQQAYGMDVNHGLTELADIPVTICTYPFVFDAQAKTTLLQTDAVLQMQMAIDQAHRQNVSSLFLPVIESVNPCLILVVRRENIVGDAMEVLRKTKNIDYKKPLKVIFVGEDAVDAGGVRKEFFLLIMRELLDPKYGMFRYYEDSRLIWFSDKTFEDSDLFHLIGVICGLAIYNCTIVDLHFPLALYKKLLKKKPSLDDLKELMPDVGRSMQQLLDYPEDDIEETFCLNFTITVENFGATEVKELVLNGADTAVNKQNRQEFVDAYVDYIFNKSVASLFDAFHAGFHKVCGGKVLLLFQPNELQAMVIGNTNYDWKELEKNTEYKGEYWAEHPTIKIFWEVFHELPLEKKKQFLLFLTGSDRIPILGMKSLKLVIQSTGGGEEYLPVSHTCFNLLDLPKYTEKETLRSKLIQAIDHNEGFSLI
UniProt P53701: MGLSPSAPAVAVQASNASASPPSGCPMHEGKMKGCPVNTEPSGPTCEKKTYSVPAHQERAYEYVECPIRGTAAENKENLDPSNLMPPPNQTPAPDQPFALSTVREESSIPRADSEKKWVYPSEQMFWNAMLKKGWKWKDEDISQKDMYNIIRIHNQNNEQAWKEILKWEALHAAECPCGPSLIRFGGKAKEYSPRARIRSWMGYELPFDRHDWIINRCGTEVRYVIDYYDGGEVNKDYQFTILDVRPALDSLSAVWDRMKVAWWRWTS
UniProt Q9Y450, whole entry, looked up: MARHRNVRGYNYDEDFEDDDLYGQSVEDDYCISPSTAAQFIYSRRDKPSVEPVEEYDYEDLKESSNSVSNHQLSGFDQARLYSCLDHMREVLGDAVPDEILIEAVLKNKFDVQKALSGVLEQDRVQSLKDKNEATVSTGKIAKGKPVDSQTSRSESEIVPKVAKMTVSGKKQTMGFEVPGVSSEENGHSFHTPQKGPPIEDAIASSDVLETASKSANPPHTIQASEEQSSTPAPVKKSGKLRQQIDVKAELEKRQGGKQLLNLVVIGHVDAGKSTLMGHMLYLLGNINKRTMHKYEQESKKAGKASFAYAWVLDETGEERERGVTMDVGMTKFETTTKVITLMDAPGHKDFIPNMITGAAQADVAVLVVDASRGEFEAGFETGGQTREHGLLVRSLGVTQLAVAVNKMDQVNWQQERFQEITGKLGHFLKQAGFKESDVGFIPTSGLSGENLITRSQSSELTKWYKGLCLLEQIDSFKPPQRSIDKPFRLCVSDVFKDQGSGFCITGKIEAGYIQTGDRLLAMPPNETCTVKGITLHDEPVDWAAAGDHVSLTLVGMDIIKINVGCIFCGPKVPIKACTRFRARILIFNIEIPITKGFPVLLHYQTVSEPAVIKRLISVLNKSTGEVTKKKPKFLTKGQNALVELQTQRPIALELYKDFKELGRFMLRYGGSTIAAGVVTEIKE

Assays:
Assay in all cases: log2 fold change, soluble protein after heating vs DMSO (PISA); higher = thermal stabilisation; K562 cells, 10 uM, 30 min; active = over 0.2 and 3.5 SD of the protein, either way, in both replicates (recomputed)
[1] = compound: CC[C@@H]1C(=O)N(C)c2cnc(Nc3ccc(C(=O)NC4CCN(C)CC4)cc3OC)nc2N1C1CCCC1
Method in brief: (§1)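 Thermal stability values are relative to control samples and come from duplicates. They are expressed as log2 fold changes. For measurement, K562 cells (2×10^6 cells/mL) received 10 μM compound for 30 min, and aliquots were heated for 3 min over 48°C-58°C, pooled, and extracted at 4°C in PBS with 0.5% NP-40. Soluble protein, the supernatant after 21,000xg for 90 min, was quantified by TMTpro 16plex LC-MS/MS with equalised channel sums.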

volasertib = compound: CC[C@@H]1C(=O)N(C)c2cnc(Nc3ccc(C(=O)N[C@H]4CC[C@H](N5CCN(CC6CC6)CC5)CC4)cc3OC)nc2N1C(C)C [volasertib]
Method in brief: as §1

[2] = compound: CC[C@H](C)N1C=C(C2=C(C=C(C=C21)C3=CN=C(C=C3)N4CCNCC4)C(=O)NCC5=C(C=C(NC5=O)C)C)C
Method in brief: as §1

epoxomicin = compound: CC[C@H](C)[C@@H](C(=O)N[C@@H]([C@@H](C)O)C(=O)N[C@@H](CC(C)C)C(=O)[C@]1(CO1)C)NC(=O)[C@H]([C@@H](C)CC)N(C)C(=O)C [epoxomicin]
Method in brief: as §1

[3] = compound: CCn1c(C(=O)N(C2CC2)C2CC2)cc2c3c(ncn3C)c(Nc3cc(C)n(C)n3)nc21
Method in brief: as §1

[4] = compound: CCn1cc(-c2ccnc3[nH]c(-c4cccc(CN(C)C)c4)cc23)c(-c2ccc(NC(=O)N(C)C)cc2)n1
Method in brief: as §1

[5] = compound: CN(C)CC(=O)Nc1ccc2[nH]c(=O)c3ccccc3c2c1
Method in brief: as §1

rosiglitazone = compound: CN(CCOC1=CC=C(C=C1)C[C@H]2C(=O)NC(=O)S2)C3=CC=CC=N3 (racemic) [rosiglitazone]
Method in brief: as §1

[6] = compound: CN1C2=C(C3=C1C(=O)N(N=C3)CC4=CC(=CC=C4)N)SC(=C2)S(=O)C
Method in brief: as §1

[7] = compound: CN1CCC(CNc2ccc3ncc(-c4cccc(OC(F)(F)F)c4)n3n2)CC1
Method in brief: as §1

saracatinib = compound: CN1CCN(CCOc2cc(OC3CCOCC3)c3c(Nc4c(Cl)ccc5c4OCO5)ncnc3c2)CC1 [saracatinib]
Method in brief: as §1

sotrastaurin = compound: CN1CCN(c2nc(C3=C(c4c[nH]c5ccccc45)C(=O)NC3=O)c3ccccc3n2)CC1 [sotrastaurin]
Method in brief: as §1

alvocidib = compound: CN1CC[C@H](c2c(O)cc(O)c3c(=O)cc(-c4ccccc4Cl)oc23)[C@H](O)C1 [alvocidib]
Method in brief: as §1

Tubastatin A = compound: CN1CCc2c(c3ccccc3n2Cc2ccc(C(=O)NO)cc2)C1 [Tubastatin A]
Method in brief: as §1

[8] = compound: CNC(=O)C1=CC=CC=C1NC2=NC(=NC=C2Cl)NC3=C(C=C(C=C3)N4CCOCC4)OC
Method in brief: as §1

defactinib = compound: CNC(=O)c1ccc(Nc2ncc(C(F)(F)F)c(NCc3nccnc3N(C)S(C)(=O)=O)n2)cc1 [defactinib]
Method in brief: as §1

rucaparib = compound: CNCc1ccc(-c2[nH]c3cc(F)cc4c3c2CCNC4=O)cc1 [rucaparib]
Method in brief: as §1

[9] = compound: CNc1nc(-c2ccc3c(N)n[nH]c3c2)cc(N2C[C@@H](C(=O)NC3CCCCC3)CC[C@H]2C)n1
Method in brief: as §1

encorafenib = compound: COC(=O)N[C@@H](C)CNc1nccc(-c2cn(C(C)C)nc2-c2cc(Cl)cc(NS(C)(=O)=O)c2F)n1 [encorafenib]
Method in brief: as §1

[10] = compound: COC(=O)[C@H](CCSC)NC(=O)C1=C(C=C(C=C1)NC[C@H](CS)N)C2=CC=CC=C2
Method in brief: as §1

Measured: log2 fold change

GTF2F1 (UniProt P35269)
inactive: [1] 0.021 | volasertib -0.009 | [2] -0.015 | epoxomicin 0.009 | [3] -0.006 | [4] -0.021 | [5] 0.014 | rosiglitazone 0.009 | [6] -0.038 | [7] -0.051 | saracatinib 0.059 | sotrastaurin 0.03 | alvocidib 0.055 | Tubastatin A 0.029 | [8] -0.051 | defactinib 0.019 | rucaparib 0.015 | [9] -0.009 | encorafenib -0.015 | [10] -0.012

HEBP1 (UniProt Q9NRV9)
inactive: [1] 0.101 | volasertib 0.21 | [2] 0.061 | epoxomicin -0.268 | [3] 0.282 | [4] 0.069 | [5] -0.073 | rosiglitazone -0.029 | [6] -0.233 | [7] -0.109 | saracatinib -0.029 | sotrastaurin -0.104 | alvocidib -0.022 | Tubastatin A -0.035 | [8] 0.294 | defactinib 0.01 | rucaparib 0 | [9] 0.141 | encorafenib -0.199 | [10] -0.011

GSPT1 isoform 3 (UniProt P15170)
inactive: [1] -0.002 | volasertib 0.064 | [2] -0.014 | epoxomicin 0.031 | [3] 0.015 | [4] -0.048 | [5] 0.013 | rosiglitazone 0.016 | [6] -0.081 | [7] -0.022 | saracatinib 0.004 | sotrastaurin 0.033 | alvocidib -0.04 | Tubastatin A 0 | [8] 0.105 | defactinib 0.025 | rucaparib -0.055 | [9] -0.001 | encorafenib -0.025 | [10] -0.013

GTF2F2 (UniProt P13984)
inactive: [1] -0.011 | volasertib -0.032 | [2] 0.029 | epoxomicin 0.027 | [3] -0.004 | [4] -0.011 | [5] 0.008 | rosiglitazone 0.034 | [6] -0.064 | [7] -0.042 | saracatinib -0.014 | sotrastaurin -0.026 | alvocidib -0.073 | Tubastatin A 0.002 | [8] -0.01 | defactinib -0.069 | rucaparib -0.044 | [9] -0.022 | encorafenib 0.006 | [10] -0.005

H1-3 (UniProt P16402)
inactive: [1] 0.094 | volasertib 0.421 | [2] 0.024 | epoxomicin -0.31 | [3] 0.014 | [4] 0.255 | [5] -0.059 | rosiglitazone -0.182 | [6] 0.216 | [7] 0.408 | saracatinib -0.04 | sotrastaurin -0.079 | alvocidib 0.252 | Tubastatin A 0.054 | [8] 0.035 | defactinib 0.263 | rucaparib 0.284 | [9] 0.096 | encorafenib 0.147 | [10] -0.04

HDLBP (UniProt Q00341)
inactive: [1] 0.157 | volasertib 0.076 | [2] 0.033 | epoxomicin -0.21 | [3] 0.004 | [4] 0.206 | [5] 0.009 | rosiglitazone -0.061 | [6] 0.243 | [7] 0.023 | saracatinib -0.162 | sotrastaurin -0.181 | alvocidib 0.117 | Tubastatin A 0.082 | [8] 0.035 | defactinib 0.194 | rucaparib 0.499 | [9] 0.057 | encorafenib 0.246 | [10] -0.03

HACL1 (UniProt Q9UJ83)
inactive: [1] 0.049 | volasertib 0.017 | [2] -0.029 | epoxomicin 0.074 | [3] 0.017 | [4] -0.007 | [5] -0.024 | rosiglitazone -0.006 | [6] -0.026 | [7] 0.079 | saracatinib 0.053 | sotrastaurin -0.009 | alvocidib 0.025 | Tubastatin A -0.009 | [8] -0.015 | defactinib 0.013 | rucaparib -0.024 | [9] -0.001 | encorafenib 0.002 | [10] 0.007

GTSE1 (UniProt Q9NYZ3)
inactive: [1] -0.465 | volasertib -0.333 | [2] 0.023 | epoxomicin -0.076 | [3] 0.088 | [4] -0.074 | [5] 0.01 | rosiglitazone -0.193 | [6] 0.002 | [7] -0.129 | saracatinib 0.271 | sotrastaurin -0.016 | alvocidib 0.157 | Tubastatin A 0.045 | [8] 0.05 | defactinib 0.011 | rucaparib 0.3 | [9] 0.045 | encorafenib 0.003 | [10] -0.01

Looked up one by one from the entries so far (two):
GTF2F2 (UniProt P13984)
inactive: [1] -0.011 | volasertib -0.032 | [2] 0.029 | epoxomicin 0.027 | [3] -0.004 | [4] -0.011 | [5] 0.008 | rosiglitazone 0.034 | [6] -0.064 | [7] -0.042 | saracatinib -0.014 | sotrastaurin -0.026 | alvocidib -0.073 | Tubastatin A 0.002 | [8] -0.01 | defactinib -0.069 | rucaparib -0.044 | [9] -0.022 | encorafenib 0.006 | [10] -0.005

HACL1 (UniProt Q9UJ83)
inactive: [1] 0.049 | volasertib 0.017 | [2] -0.029 | epoxomicin 0.074 | [3] 0.017 | [4] -0.007 | [5] -0.024 | rosiglitazone -0.006 | [6] -0.026 | [7] 0.079 | saracatinib 0.053 | sotrastaurin -0.009 | alvocidib 0.025 | Tubastatin A -0.009 | [8] -0.015 | defactinib 0.013 | rucaparib -0.024 | [9] -0.001 | encorafenib 0.002 | [10] 0.007

(listing goes on)

HELB (UniProt Q8NG08)
inactive: [1] -0.093 | volasertib 0.071 | [2] -0.041 | epoxomicin 0.082 | [3] -0.198 | [4] -0.06 | [5] -0.054 | rosiglitazone -0.013 | [6] -0.081 | [7] 0.102 | saracatinib 0.028 | sotrastaurin 0.042 | alvocidib -0.034 | Tubastatin A 0.011 | [8] 0.111 | defactinib 0.006 | rucaparib -0.13 | [9] -0.052 | encorafenib 0.014 | [10] -0.052

GSTZ1 (UniProt G3V4T6)
inactive: [1] 0.038 | volasertib 0.078 | [2] 0.042 | epoxomicin -0.09 | [3] 0.006 | [4] -0.022 | [5] 0.011 | rosiglitazone 0.025 | [6] -0.076 | [7] -0.03 | saracatinib 0.175 | sotrastaurin 0.094 | alvocidib 0.018 | Tubastatin A 0.018 | [8] 0.026 | defactinib -0.034 | rucaparib -0.058 | [9] 0.101 | encorafenib -0.037 | [10] 0.003

GTPBP10 (UniProt A4D1E9)
inactive: [1] 0.183 | volasertib 0.33 | [2] -0.045 | epoxomicin -0.153 | [3] -0.023 | [4] 0.304 | [5] 0.053 | rosiglitazone 0.016 | [6] 0.133 | [7] 0.104 | saracatinib -0.066 | sotrastaurin -0.027 | alvocidib -0.022 | Tubastatin A 0.021 | [8] -0.061 | defactinib -0.071 | rucaparib -0.003 | [9] 0.146 | encorafenib 0.07 | [10] -0.024

GTF2I (UniProt P78347)
inactive: [1] -0.126 | volasertib -0.109 | [2] 0.057 | epoxomicin 0.028 | [3] -0.064 | [4] -0.035 | [5] 0.049 | rosiglitazone 0.073 | [6] 0.026 | [7] 0.089 | saracatinib -0.009 | sotrastaurin -0.16 | alvocidib 0.031 | Tubastatin A 0.232 | [8] -0.012 | defactinib -0.073 | rucaparib 0.269 | [9] -0.067 | encorafenib -0.127 | [10] -0.164

HDHD5 (UniProt Q9BXW7)
inactive: [1] -0.071 | volasertib -0.085 | [2] 0.043 | epoxomicin -0.078 | [3] -0.068 | [4] -0.231 | [5] 0.033 | rosiglitazone 0.049 | [6] 0.005 | [7] -0.048 | saracatinib -0.041 | sotrastaurin -0.034 | alvocidib -0.157 | Tubastatin A -0.01 | [8] 0.065 | defactinib -0.071 | rucaparib 0.036 | [9] -0.074 | encorafenib -0.024 | [10] -0.087

HERC4 (UniProt Q5GLZ8)
inactive: [1] -0.014 | volasertib -0.096 | [2] 0.044 | epoxomicin 0.03 | [3] 0.013 | [4] -0.014 | [5] 0.011 | rosiglitazone 0.009 | [6] -0.047 | [7] -0.028 | saracatinib 0.07 | sotrastaurin -0.002 | alvocidib -0.075 | Tubastatin A 0.006 | [8] -0.01 | defactinib -0.034 | rucaparib -0.03 | [9] -0.038 | encorafenib 0.021 | [10] -0.025

HCCS (UniProt P53701)
inactive: [1] 0.012 | volasertib -0.007 | [2] -0.037 | epoxomicin -0.014 | [3] 0 | [4] 0.011 | [5] 0.021 | rosiglitazone -0.006 | [6] -0.009 | [7] -0.056 | saracatinib 0.039 | sotrastaurin 0.051 | alvocidib 0 | Tubastatin A -0.038 | [8] -0.02 | defactinib 0.011 | rucaparib -0.003 | [9] -0.062 | encorafenib -0.049 | [10] 0.049

HBS1L (UniProt Q9Y450)
inactive: [1] 0.007 | volasertib -0.057 | [2] 0.026 | epoxomicin 0.02 | [3] -0.006 | [4] -0.032 | [5] -0.006 | rosiglitazone 0.032 | [6] -0.035 | [7] -0.024 | saracatinib 0.026 | sotrastaurin 0.017 | alvocidib -0.003 | Tubastatin A 0.006 | [8] 0.016 | defactinib 0.017 | rucaparib -0.002 | [9] 0.005 | encorafenib 0.027 | [10] -0.02
